Data published in patent publication CN117567617A.
These are yes or no findings as the source states them, for the method shown. Binding can be weak; no strength is given.

What was measured:
[1] = target: CLDN18.2 (species not stated); experiment: flow cytometry on overexpressing cells (Figure 1)
[2] = target: CLDN18.2 (species not stated); experiment: flow cytometry on stably transfected CHO cells (cell pool)
[3] = target: CLDN18.2 (species not stated); experiment: flow cytometry titration and affinity measurement (Figure 2, Table 1)

- binding [1]: binds
- binding [2]: binds
- binding [3]: binds
B1: 全人源抗CLDN18.2抗体2A2 (CLDN-BC-2A2-hH1) (antibody, V domains shown)
VH: QVQLQQWGPGLVKPSQTLSLTCTVSGGSISSVGYYWSWIRQHPGQGLEWVGYIYYSGGTYYNPSLKSRVTISLDTSKNQFSLKLTSVTAADTAVYYCASYGSVSPYYYYYGMDVWGQGTTVTVSS
VL: DIVMTQSPSSVSASVGDRVTITCRASQGISSWLAWYQQKPGKAPNLLISAASSLQSGVPSRFSGNGSGTDFTLTISSLQPEDFASYYCQQANSFPITFGQGTRLEIK
